In patent publication US20230355608A1, “TARGETING POLYCYTHEMIA VERA (PV)-INITIATING CELLS BY BLOCKING LEUKOTRIENE BINDING TO THEIR RECEPTORS” (UNIVERSITY OF MASSACHUSETTS, priority 2020, published 2023):
Entries after “also recorded” stand apart in the source; their conditions may differ.

How the values were obtained:
[1] = system: JAK2V617F-induced PV mice; settings: vs placebo
Procedure: The bone marrow cells from donor mice, pretreated with 5-fluorouracil (5-FU), were infected with retrovirus containing pMSCV-JAK2V617F-GFP under conditions for the induction of PV as described previously, followed by transplantation of the transduced cells into C57BL/6J recipient mice.
To test this hypothesis, bone marrow cells (BM) were collected for FCM analysis after 4 months treatment.
PV model was induced in mice as follows: Bone marrow cells from 5-FU-treated (200 mg/kg) donor mice were transduced twice with JAK2V617F retrovirus in the presence of IL-3, IL-6, and stem cell factor (SCF). The recipient mice received 1,100 cGy lethal gamma irradiation (given by 2 split 550-cGy doses), followed by 2.0×10^6 cells transplantation via tail vein injection.
Hematopoietic cells were collected from peripheral blood and bone marrow of the PV mice, and red blood cells (RBCs) were eliminated using RBC lysis buffer (pH 7.4). Then the cells were stained with fluorescence-labeled antibodies (Gr−1 for neutrophils, c-kit and Sca−1 for stem cells) and subjected to FACS analysis. These antibodies were purchased from eBioscience Biotechnology. Data were acquired on a FACS Calibur flow cytometric analyzer (Becton Dickinson).
Water was used as placebo.

CC(C)(O)c1ccccc1CC[C@@H](SCC1(CC(=O)[O-])CC1)c1cccc(/C=C/c2ccc3ccc(Cl)cc3n2)c1.[Na+] [Montelukast, (R-(E))-1-(((1-(3-(2-(7-Chloro-2-quinolinyl)ethenyl)phenyl)-3-(2-(1-hydroxy-1-methylethyl)phenyl)propyl)thio)methyl)-cyclopropaneacetic acid]
effect in combination with JAK2 inhibitor compounds (JAK2V617F-cell lines): synergetic effect | PV cell infiltration to the spleens ([1]; 150 mg/kg once a day by gavage): less PV cell infiltration to the spleens | number of PSCs (GFP+Lin-c-Kit+Sca-1+) in BM ([1]; after 4 months treatment): dropped to a much lower level | percentage of PSCs (GFP+Lin-c-Kit+Sca-1+) in BM ([1]; after 4 months treatment): dropped to a much lower level | GFP-Lin-c-Kit+Sca-1+ cells in BM ([1]; after 4 months treatment, normal stem cells): did not show a noteworthy difference; also recorded: demonstrates a noteworthy difference
